Results are given in words; binding and its absence hold for the method and conditions named. For some assays here: Binding seen in cells or lysates may run through a third protein. Some binding calls cover weakened binding; strength is not graded here.
Tests used:
[1] = biological target: GST-cJun(1-79), GST fused to c-Jun AA 1-79 (human) (UniProt P05412); assay: GSTcJun deletion mutants on GSH-agarose, UV-irradiated HeLa extract; solid-phase kinase assay and eluted-kinase assay
[2] = biological target: GSTcJun(33-223), GST fused to c-Jun AA 33-223 (human) (UniProt P05412); assay: as above
[3] = biological target: GSTcJun C-terminal truncation ending at c-Jun a.a. 93 (human) (UniProt P05412); assay: as above
[4] = biological target: GSTcJun(wt), glutathione-S-transferase fused to c-Jun AA 1-223 (human) [GST: P08515]; assay: refers to Example 6, GSTcJun pull-down and in-gel kinase assay
[5] = biological target: GSTcJun(Ala63/73), GST fused to c-Jun AA 1-223 with Ser 63 and Ser 73 converted to alanines (human) (UniProt P05412); assay: solid-phase kinase assay, extracts of Ha-ras-transformed FR3T3, UV-irradiated HeLa or TPA-stimulated Jurkat cells on GSH-agarose beads
[6] = biological target: GSTcJun(wt), glutathione-S-transferase fused to c-Jun AA 1-223 (human) [GST: P08515]; assay: as above
[7] = biological target: GSTcJun(Ch), GST fused to the activation domain (AA 1-144) of chicken c-Jun (chicken) [GST: P08515]; assay: GST fusion proteins on GSH-agarose, TPA-activated Jurkat extract; solid-phase kinase assay and eluted-kinase assay
[8] = biological target: GSTcJun(wt), glutathione-S-transferase fused to c-Jun AA 1-223 (human) [GST: P08515]; assay: GST fusion proteins on GSH-agarose, cell extract; solid-phase kinase assay and eluted-kinase assay
[9] = biological target: GSTcJun(wt), glutathione-S-transferase fused to c-Jun AA 1-223 (human) [GST: P08515]; assay: solid-phase kinase assay, FR3T3 nuclear and cytosolic extracts on GSTcJun(wt)-GSH-agarose beads
[10] = biological target: GSTcJun(wt), glutathione-S-transferase fused to c-Jun AA 1-223 (human) [GST: P08515]; assay: GSTcJun(WT)-GSH-agarose pull-down from extracts of K562, U937, Jurkat, HeLa, F9, Ha-ras-transformed FR3T3 and QT6 cells, in-gel kinase assay
[11] = biological target: GSTcJun(wt), glutathione-S-transferase fused to c-Jun AA 1-223 (human) [GST: P08515]; assay: GSTcJun-bound protein fraction of TPA-stimulated Jurkat extract, SDS-PAGE, renaturation and kinase assay
[12] = biological target: GSTcJun(wt), glutathione-S-transferase fused to c-Jun AA 1-223 (human) [GST: P08515]; assay: elution from GSTcJun(wt)-GSH-agarose beads loaded with TPA-stimulated Jurkat extract, eluted kinase assayed on recombinant c-Jun
[13] = biological target: GSTcJun(wt), glutathione-S-transferase fused to c-Jun AA 1-223 (human) [GST: P08515]; assay: GST-cJun(1-223)-GSH agarose beads with Jurkat whole cell extract, solid-state kinase assay
[14] = biological target: GSTcJun(wt), glutathione-S-transferase fused to c-Jun AA 1-223 (human) [GST: P08515]; assay: GST-cJun(1-223)-GSH agarose pull-down from Jurkat whole cell extract, in-gel kinase assay

The chains behind the UniProt entries cited, without tags or fusion partners. Where a name states a change or a piece, a line headed by the entry shows the natural chain unless it says otherwise.
UniProt P05412: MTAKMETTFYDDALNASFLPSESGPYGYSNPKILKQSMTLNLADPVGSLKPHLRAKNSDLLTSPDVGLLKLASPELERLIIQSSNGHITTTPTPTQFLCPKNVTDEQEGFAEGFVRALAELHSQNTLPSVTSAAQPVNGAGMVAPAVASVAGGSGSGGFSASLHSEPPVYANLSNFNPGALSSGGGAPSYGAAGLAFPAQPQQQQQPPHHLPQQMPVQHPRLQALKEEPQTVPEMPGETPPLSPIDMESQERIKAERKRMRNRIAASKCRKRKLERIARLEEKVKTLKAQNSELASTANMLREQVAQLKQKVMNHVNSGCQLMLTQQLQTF

Measured: binding

c-Jun N-terminal protein kinase (JNK), 46 kD form, endogenous kinase from cell extracts (from UniProt P45983-2 1-384) (enzyme)
binds: all assays above
